Data: article PMC6231642
Results are given in words; binding and its absence hold for the method and conditions named. Binding seen in cells or lysates may run through a third protein. Some results given as binding are weak or reduced against the parent protein; the word gives no strength.

Sequences of proteins named here, by UniProt entry; tags and fusion partners are left off.
UniProt Q9NRD5: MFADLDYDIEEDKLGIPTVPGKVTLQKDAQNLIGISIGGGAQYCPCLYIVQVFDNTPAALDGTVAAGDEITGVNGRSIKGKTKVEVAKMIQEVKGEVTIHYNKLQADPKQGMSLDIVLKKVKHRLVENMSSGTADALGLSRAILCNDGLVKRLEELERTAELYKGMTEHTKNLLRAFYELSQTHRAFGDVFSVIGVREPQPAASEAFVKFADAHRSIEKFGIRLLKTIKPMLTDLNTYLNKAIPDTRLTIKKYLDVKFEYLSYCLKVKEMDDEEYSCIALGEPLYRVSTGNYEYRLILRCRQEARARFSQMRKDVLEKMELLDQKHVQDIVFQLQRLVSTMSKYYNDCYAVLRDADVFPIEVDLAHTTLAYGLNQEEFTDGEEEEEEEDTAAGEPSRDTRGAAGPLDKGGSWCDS
UniProt Q96QS3: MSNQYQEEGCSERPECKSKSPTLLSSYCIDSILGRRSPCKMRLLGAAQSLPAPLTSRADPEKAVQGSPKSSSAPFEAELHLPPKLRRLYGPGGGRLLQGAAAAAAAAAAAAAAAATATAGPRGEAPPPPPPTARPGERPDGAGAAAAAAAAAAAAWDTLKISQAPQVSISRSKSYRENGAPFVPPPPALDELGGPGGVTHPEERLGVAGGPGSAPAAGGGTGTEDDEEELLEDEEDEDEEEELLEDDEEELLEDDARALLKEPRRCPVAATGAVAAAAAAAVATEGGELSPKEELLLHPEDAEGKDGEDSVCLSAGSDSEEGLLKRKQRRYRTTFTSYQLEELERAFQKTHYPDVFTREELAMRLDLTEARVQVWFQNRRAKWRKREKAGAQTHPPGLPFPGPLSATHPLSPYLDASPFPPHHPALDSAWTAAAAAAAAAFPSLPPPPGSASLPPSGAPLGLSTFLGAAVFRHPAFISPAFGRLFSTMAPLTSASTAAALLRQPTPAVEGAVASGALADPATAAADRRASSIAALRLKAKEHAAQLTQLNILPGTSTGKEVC

Molecular target: V5-tagged PICK1 (Protein interacting with C kinase 1) (human) (UniProt Q9NRD5)
Test: co-IP; HEK293T cells co-transfected with Myc-ARX and V5-PICK1 or HA-PKC; lysed in extraction buffer 1 (120 mM NaCl, 50 mM Tris-HCl pH 8.0, 0.5% NP-40); IP with anti-V5 or anti-HA overnight at 4°C, protein A sepharose; wash 250 mM NaCl, 20 mM Tris-HCl pH 8.0, 1 mM EDTA, 0.5% NP-40; immunoblot with anti-Myc

binding: binds
Substance: Myc-tagged full-length ARX (Aristaless-related homeobox protein) (from UniProt Q96QS3 1-562)
